The shares of active, inactive and inconclusive entries below differ from those in the screen. Where the call is inconclusive, the potency comes from a doubtful curve fit. Calls of active or inactive are those of the source. Calls follow the shape of the dose curve; as a rule, active = well fitted activation curve with a large enough effect; inconclusive = small, poorly fitted or top-dose-only effect, or another doubt; inactive = no such curve, though single readings can be large or run the other way.
Molecular target: Rap guanine nucleotide exchange factor 3 (Homo sapiens) (UniProt O95398)
Experiment: Counterscreen qHTS for agonist of cAMP-regulated guanine nucleotide exchange factor 3 (EPAC1) (AID 1645889); also: nearly all actives have a fitted effect of over 40% in size; as to activation: % of control where 0% means no effect
Conditions: EPAC1 Rap1B-BODIPY-GDP exchange, fluorescence; activation: at 154 µM (top of the series) unless noted
Procedure, shortened: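 Rap1B-BODIPY-GDP 250 nM + GDP 50 uM; cpds 7-pt, final 9.74 nM–152 uM (activator mode) or from 7.32 nM upwards (inhibitor mode); RT; FI 480/540 nm at 5 and 30 min, then ± cAMP, reread.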
Potency is read from the fitted curve at half-maximal effect.

Structure (SMILES) | activation | Potency
COC(=O)c1cc2sccc2n1Cc1c(C)cc(C)cc1C | inconclusive: 73.1% [activator] | 
COc1ccccc1-c1ccc(Nc2cccc(C(F)(F)F)c2)nn1 | inconclusive: 36.5% [activator] | 
Cc1ccc2nc3sc(C(=O)NCc4ccco4)c(N)c3cc2c1 | inconclusive: 55.4% [activator] [at 30.8 µM] | 
O=C(CSc1nnc(-c2cccnc2)n1CCc1ccccc1)NCc1ccccc1 |  | inconclusive: 2.82 µM [activator, full curve, poor fit]
COc1ccc(-c2cc3c(c4c2ccn4C)C2CCC3O2)cc1OC (stereo unspecified) | inactive: 10.3% [at 30.8 µM] | 
Nc1ccc2ccccc2c1C(=O)c1ccccc1 |  | inactive

From PubChem BioAssay (NCATS)
